Assay results reported in patent US6417220B2, “Mitochondrial membrane stabilizer” (Daiichi Pharmaceutical Co., Ltd., priority 1996, dated 2002).
At least one structure is not confirmed: it was looked up by name or label, or the drawing left a doubt.

Assays:
[1] = tested on: NG108-15 cells; assay: Determination of the mitochondrial membrane potential (Rhodamine 123 fluorescence); format: cell-based; settings: FIG. 8
[2] = tested on: NG108-15 cells; assay: Determination of the intracellular Ca2+ concentration (fura2-AM fluorescence ratio); format: cell-based; settings: Ro5-4864 applied after pretreatment with PK11195 20 μM; FIG. 7
Source text: The present invention will be explained more specifically by referring to the following examples. However, the scope of the present invention is not limited to these examples. The test procedure in the examples was according to the method of Hare et al. (Hare, M. F., et. al., JPET, 266, pp.1626-1635, 1993) unless otherwise indicated. In the examples, “Nefiracetam” means 2-oxo-1-pyrrolidinylacetic acid 2,6-dimethylanilide, and “Ro5-4864” means the mitochondrias benzodiazepine receptor agonist, (7-chloro-5-(4-chlorophenyl)-1,3-dihydro-1-methyl-2H-1,4-benzodiazepin-2-one: TIPS, December, pp. 506-511, 1986).
Changes in the intracellular Ca^2+ concentration caused by Ro5-4864 was studied. […]
For the determination of intracellular Ca^2+ concentrations, the culture medium was removed from the Petri dish where the NG108-15 cells were cultured, and the dish was washed twice with HBS. […] Finally, 1 ml of HBS was added to the Flexiperm, and the intracellular Ca^2+ concentration was measured by ARGUS-50/CA (Hamamatsu Photonics). […] An increase in the 340 nm excited fluorescence due to the binding of intracellular calcium ions to the fura2-AM, and a decrease in the 380 nm excited fluorescence were recorded by imaging and the ratio of fluorescence intensity between the fluorescence images was obtained.

For `CCC(C)N(C)C(=O)c1cc2ccccc2c(-c2ccccc2Cl)n1` (stereo not shown) [PK 11195, N-Methyl-N-(1-methylpropyl)-(2-chlorophenyl)isoquinoline-3-carboxamide], the “change in mitochondrial membrane potential” value ([1]; PK 11195 20 μM alone) was “no change”, the “change in mitochondrial membrane potential on addition of Ro5-4864” value ([1]; Ro5-4864 50 μM in the presence of PK 11195 20 μM) was “almost no change” and the “change in mitochondrial membrane potential on repeated addition of Ro5-4864” value ([1]; repeated addition of Ro5-4864 afterwards, in the presence of PK 11195 20 μM) was “induced the depolarization”. For the same compound, the “enhancing effect of Ro5-4864 on intracellular Ca2+ concentration” value [2] was “not observed”.
